Data published in patent publication US7098248B2, “Beta-adrenergic blockade reversal of catabolism after severe burn” (Research Development Foundation, priority 2001, dated 2006).

Tests used:
[1] = tested on: severely burned (>40% total body surface area) children; assay: Vital signs (hourly heart rate, blood pressure, temperature)
[2] = tested on: severely burned (>40% total body surface area) children; assay: Serum glucose, potassium and hormone values; settings: two weeks of oral propranolol, mean ± SEM

## CC(C)NCC(O)COc1cccc2ccccc12 (stereo not shown) [Propranolol, propranolol]
[1]; result in words
  Temperature between groups: not statistically different
[1]; two weeks of oral propranolol, mean ± SEM
  Temperature, change from baseline: −0.5 ± 0.2 °C
[2]; serum
  Cortisol, change from baseline: -3.1 ± 2.2 µg/dL
  Growth hormone, change from baseline: -1.1 ± 0.9 ng/mL
  Insulin, change from baseline: −29.4 ± 18.5 μlU/ml
  Insulin-like growth factor-1, change from baseline: 38 ± 13 ng/mL
[2]
  Serum glucose, change from baseline: -30 ± 13 mg/dL
